According to patent publication US20230159931A1, “TARGETING THE PALMOTYLATION/DEPALMOTYLATION CYCLE TO TREAT INFLAMMATORY DISEASES” (CORNELL UNIVERSITY, priority 2020, published 2023):
These are yes or no findings as the source states them, for the method shown. For part of these data: In cells and extracts the contact can be indirect. Some entries that bind do so weakly or less than the wild type. One block for each substance: values may come before it.

Sequences of proteins named here, by UniProt entry; tags and fusion partners are left off. A change or cut given only in a name is not applied to a line headed by its entry. Residues count along the entry.
UniProt Q15796: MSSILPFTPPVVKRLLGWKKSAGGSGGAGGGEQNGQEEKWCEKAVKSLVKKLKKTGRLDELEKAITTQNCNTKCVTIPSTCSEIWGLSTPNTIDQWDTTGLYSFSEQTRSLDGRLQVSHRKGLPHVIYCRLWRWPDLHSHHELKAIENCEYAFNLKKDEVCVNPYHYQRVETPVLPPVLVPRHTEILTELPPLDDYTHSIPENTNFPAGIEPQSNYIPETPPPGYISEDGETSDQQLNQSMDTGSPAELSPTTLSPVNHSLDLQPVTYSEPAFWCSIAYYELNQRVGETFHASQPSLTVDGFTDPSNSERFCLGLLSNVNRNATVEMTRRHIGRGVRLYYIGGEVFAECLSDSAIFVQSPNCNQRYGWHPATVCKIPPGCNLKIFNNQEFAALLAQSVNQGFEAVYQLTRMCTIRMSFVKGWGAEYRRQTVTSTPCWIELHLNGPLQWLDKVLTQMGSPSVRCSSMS
UniProt Q9WTL7: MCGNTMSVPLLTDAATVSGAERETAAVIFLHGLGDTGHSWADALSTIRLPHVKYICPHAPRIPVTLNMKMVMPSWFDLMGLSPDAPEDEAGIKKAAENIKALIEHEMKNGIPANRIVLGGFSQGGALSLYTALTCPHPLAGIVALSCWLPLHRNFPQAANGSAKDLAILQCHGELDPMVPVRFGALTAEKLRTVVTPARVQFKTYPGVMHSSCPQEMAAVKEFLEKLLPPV
UniProt P40763: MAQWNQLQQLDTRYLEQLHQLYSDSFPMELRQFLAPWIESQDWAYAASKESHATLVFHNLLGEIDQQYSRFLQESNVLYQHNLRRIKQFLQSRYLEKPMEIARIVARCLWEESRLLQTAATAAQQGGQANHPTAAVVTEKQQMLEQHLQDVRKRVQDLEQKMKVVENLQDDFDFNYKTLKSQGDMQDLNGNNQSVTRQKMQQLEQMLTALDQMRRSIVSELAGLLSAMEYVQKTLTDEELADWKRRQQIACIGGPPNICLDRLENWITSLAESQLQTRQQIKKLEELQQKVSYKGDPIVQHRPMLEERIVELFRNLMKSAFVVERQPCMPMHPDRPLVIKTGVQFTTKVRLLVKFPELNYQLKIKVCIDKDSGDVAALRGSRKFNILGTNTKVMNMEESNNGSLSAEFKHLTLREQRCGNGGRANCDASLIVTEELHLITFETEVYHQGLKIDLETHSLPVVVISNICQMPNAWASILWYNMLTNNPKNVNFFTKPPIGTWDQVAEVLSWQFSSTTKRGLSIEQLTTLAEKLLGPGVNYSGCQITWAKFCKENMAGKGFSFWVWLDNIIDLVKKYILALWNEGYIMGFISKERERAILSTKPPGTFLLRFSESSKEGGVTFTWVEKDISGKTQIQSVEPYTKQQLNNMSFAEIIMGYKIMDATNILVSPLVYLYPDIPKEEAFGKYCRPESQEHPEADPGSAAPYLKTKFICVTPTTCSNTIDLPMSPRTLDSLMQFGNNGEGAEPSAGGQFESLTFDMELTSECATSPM
UniProt P42227, residues 2-770: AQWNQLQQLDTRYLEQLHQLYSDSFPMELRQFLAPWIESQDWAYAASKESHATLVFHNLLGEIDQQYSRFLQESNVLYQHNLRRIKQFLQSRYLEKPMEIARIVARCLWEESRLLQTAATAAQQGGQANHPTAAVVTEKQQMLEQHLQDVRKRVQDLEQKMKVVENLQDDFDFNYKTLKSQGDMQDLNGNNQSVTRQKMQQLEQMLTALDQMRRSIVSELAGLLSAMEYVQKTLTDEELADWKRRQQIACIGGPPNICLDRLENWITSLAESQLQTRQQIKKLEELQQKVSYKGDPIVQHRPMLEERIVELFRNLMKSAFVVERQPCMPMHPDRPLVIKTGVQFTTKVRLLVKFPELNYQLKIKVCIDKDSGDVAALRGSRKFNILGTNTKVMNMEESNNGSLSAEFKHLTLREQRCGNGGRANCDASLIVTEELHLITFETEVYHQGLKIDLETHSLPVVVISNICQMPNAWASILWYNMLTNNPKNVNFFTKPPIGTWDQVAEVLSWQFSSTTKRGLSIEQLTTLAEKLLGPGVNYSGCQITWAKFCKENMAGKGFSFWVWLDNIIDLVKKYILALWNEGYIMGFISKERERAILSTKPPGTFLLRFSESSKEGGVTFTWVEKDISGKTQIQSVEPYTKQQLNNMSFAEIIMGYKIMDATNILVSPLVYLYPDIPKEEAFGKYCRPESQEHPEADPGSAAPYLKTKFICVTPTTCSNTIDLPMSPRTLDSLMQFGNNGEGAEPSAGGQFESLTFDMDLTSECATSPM

Tests used:
HA-SMAD2 = HA-SMAD2 (UniProt Q15796); test: Flag pull-down from HEK293T cells, western blot (FIG. 9C)
DHHC7 (mouse) = biological target: T1, DHHC7 (mouse) (UniProt Q91WU6); test: interaction in cells; method not described in the sentence
T1 sequence: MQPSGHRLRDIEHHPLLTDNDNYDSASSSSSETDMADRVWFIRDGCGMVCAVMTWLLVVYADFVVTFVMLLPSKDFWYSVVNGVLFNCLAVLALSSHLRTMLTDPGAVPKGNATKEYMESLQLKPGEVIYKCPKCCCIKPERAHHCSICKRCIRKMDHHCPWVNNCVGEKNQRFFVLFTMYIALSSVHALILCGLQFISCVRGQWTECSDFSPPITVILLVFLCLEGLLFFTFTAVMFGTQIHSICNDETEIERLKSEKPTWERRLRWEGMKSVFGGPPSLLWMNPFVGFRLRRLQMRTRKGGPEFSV

Flag-tagged APT2 (mouse) [1] = biological target: Flag-tagged APT2 (mouse) (UniProt Q9WTL7); test: STAT3-APT2 interaction experiment repeated in HEK293T cells
Flag-tagged APT2 (mouse) [2] = biological target: Flag-tagged APT2 (mouse) (UniProt Q9WTL7); test: association of tagged proteins co-expressed in HEK293T cells
[3] = biological target: Haemagglutinin (HA)-tagged STAT3 (UniProt P40763); test: Flag-SMAD2 pull-down of HA-STAT3, HEK293T cells (FIG. 9D)
[4] = biological target: Haemagglutinin (HA)-tagged STAT3 (UniProt P40763); test: Flag pull-down from HEK293T cells, western blot (FIG. 9D, 9F)
[5] = biological target: endogenous STAT3 of mouse splenocytes (mouse) (UniProt P42227); test: Flag pull-down from mouse splenocytes (WT, Zdhhc7 knockout, APT2 knockout), western blot (FIG. 10E, 10F)
Flag-STAT3 = Flag-STAT3 (UniProt P40763); test: Flag-STAT3 pull-down of HA-SMAD2, HEK293T cells (FIG. 9C)

Substance: Flag-STAT3 (from UniProt P40763 1-770)
binding (HA-SMAD2): binds | binding (DHHC7 (mouse)): binds

Substance: Haemagglutinin (HA)-tagged STAT3 (from UniProt P40763 1-770)
binding (Flag-tagged APT2 (mouse) [1]): binds | binding (Flag-tagged APT2 (mouse) [2]): binds

Substance: Flag-SMAD2 (from UniProt Q15796 1-467)
binding [3]: binds | binding [4]: binds | binding [5]: binds

The next lines start with the values.

binding (Flag-STAT3): binds
Substance: HA-SMAD2 (from UniProt Q15796 1-467)

binding (Flag-tagged APT2 (mouse) [1]): binds
Substance: HA-tagged phosphorylation site mutant STAT3(Y705F) (from UniProt P40763 1-770)
